From publication doi:10.1101/148981
These are yes or no findings as the source states them, for the method shown. Binding seen in cells or lysates may run through a third protein. Some results given as binding are weak or reduced against the parent protein; the word gives no strength. Sequences can lack the tags named with a protein.

The chains behind the UniProt entries cited, without tags or fusion partners.
UniProt Q9UQM7: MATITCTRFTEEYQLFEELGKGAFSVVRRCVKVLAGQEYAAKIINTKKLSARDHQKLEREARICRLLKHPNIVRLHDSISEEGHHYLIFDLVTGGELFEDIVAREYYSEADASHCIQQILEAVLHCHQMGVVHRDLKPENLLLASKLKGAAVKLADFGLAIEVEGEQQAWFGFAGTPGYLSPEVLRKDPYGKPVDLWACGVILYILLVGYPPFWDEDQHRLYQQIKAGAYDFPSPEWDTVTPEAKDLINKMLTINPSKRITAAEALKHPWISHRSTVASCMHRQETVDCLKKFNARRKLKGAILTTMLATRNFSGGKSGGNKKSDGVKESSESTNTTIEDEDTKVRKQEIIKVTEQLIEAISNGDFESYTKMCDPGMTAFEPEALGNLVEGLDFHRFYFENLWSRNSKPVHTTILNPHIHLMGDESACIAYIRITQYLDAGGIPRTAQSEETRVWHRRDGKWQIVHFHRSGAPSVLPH

Target: T1, HA epitope-tagged Rem2 protein (UniProt Q9WTY2)
T1 sequence: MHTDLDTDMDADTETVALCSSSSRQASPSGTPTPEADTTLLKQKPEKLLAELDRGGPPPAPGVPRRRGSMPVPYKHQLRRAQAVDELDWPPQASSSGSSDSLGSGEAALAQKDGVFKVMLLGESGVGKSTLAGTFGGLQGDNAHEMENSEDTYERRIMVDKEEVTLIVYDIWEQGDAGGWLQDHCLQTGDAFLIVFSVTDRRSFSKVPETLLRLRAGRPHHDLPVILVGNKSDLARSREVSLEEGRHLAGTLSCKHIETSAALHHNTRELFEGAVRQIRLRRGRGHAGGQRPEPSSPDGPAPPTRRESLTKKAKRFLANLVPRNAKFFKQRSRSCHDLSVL
Test: co-IP

binding: binds
Substance: myc epitope-tagged CaMKIIα protein (from UniProt Q9UQM7 1-478) (enzyme)
